Results as given in US20050287569A1.
These are yes or no findings as the source states them, for the method shown. Sequences can lack the tags named with a protein.

Columns and labels:
[1] = biological target: SH3 domains of Nck (two-hybrid fusion); test: yeast two-hybrid (beta-galactosidase, 3-AT resistance)
[2] = biological target: SH3 domain of cortactin (two-hybrid fusion); test: as above

B1: EspFU, Gal4-fusion (Example 10; fragment not specified in the sentence) (protein)
chain: LPNVRQRLIQHLAEHGIKPARSMAEHIPPAPNWPAPPPPVQNEQSRPLPDVAQRLVQHLAEHGIQPARNMAEHIPPAPNWPAPPLPVQNEQSRPLPDVAQRLVQHLAEHGIQPARSMAEHIPPAPNWPAPPPPVQNEQSRPLPDVAQRLVQHLAEHGIQPARSMAEHIPPAPNWPAPPPPVQNEQSRPLPDVAQRLMQHLAEHGIQPARNMAEHIPPAPNWPAPTPPVQNEQSRPLPDVAQRLMQHLAEHGIQPARNMAEHIPPAPNWPAPTPPVQNEQSRPLPDVAQRLMQHLAEHGINTSKRS
In the case of B1, the binding [1] is reported as “no binding” and the binding [2] is reported as “no binding”.
